Measured values reported in patent US20180244795A1.
These are yes or no findings as the source states them, for the method shown. Some results given as binding are weak or reduced against the parent protein; the word gives no strength.

Tests used:
[1] = target: hCD37-Fc-LAGA (amino acids 107 to 235 of human CD37 fused to human IgG1 Fc-domain) (human); test: ELISA, hybridoma supernatant on coated antigen; antigen taken from FIG. 1B legend
[2] = target: hCD37-Fc-LAGA (amino acids 107 to 235 of human CD37 fused to human IgG1 Fc-domain) (human); test: native PAGE Western blot
[3] = target: hCD37-Fc-LAGA (amino acids 107 to 235 of human CD37 fused to human IgG1 Fc-domain) (human); test: ELISA, hybridoma supernatant on coated antigen, native and denatured (FIG. 1B legend)
[4] = target: hCD37-Fc-LAGA (amino acids 107 to 235 of human CD37 fused to human IgG1 Fc-domain) (human); test: Western blot after denaturing, reducing SDS PAGE (Gel C), primary 1B11-2, secondary anti-mouse F(ab)2-HRP
[5] = target: hCD37-Fc-LAGA (amino acids 107 to 235 of human CD37 fused to human IgG1 Fc-domain) (human); test: ELISA, purified antibody on native coated antigen
[6] = target: hCD37-Fc-LAGA (amino acids 107 to 235 of human CD37 fused to human IgG1 Fc-domain) (human); test: denaturing SDS PAGE Western blot
[7] = target: hCD37-Fc-LAGA (amino acids 107 to 235 of human CD37 fused to human IgG1 Fc-domain) (human); test: ELISA, purified antibody on native coated antigen (FIG. 2 legend)
[8] = target: hCD37-Fc-LAGA (amino acids 107 to 235 of human CD37 fused to human IgG1 Fc-domain) (human); test: ELISA, native hCD37-Fc-LAGA coated on the plate, purified antibody titrated (left panel)
[9] = target: hCD37-Fc-LAGA (amino acids 107 to 235 of human CD37 fused to human IgG1 Fc-domain) (human); test: Western blot after native PAGE (Gel C), primary 1B11-2, secondary anti-mouse F(ab)2-HRP

- binding [1]: binds
- binding [2]: binds
- binding [3]: binds
- binding [4]: binds
- binding [5]: binds
- binding [6]: binds
- binding [7]: binds
- binding [8]: binds
- binding [9]: binds
B1: muCD37-1B11-2 mouse monoclonal anti-human CD37 antibody (antibody, mouse IgG1, kappa, V domains shown)
VH: EVQLLQSGPELVKPGASVKISCKASGYSFTGYFMNWVIQSHGKGLEWIGRINPYNGDTFYNQKFKGKATLTVDKSSTTAHMELLSLTSEDSAVYYCGSRGIVASSRFFDVWGAGTSVIVSS
VL: SIVMTQTPKFLLVSAGDRVTITCKASQGVSNDVDWYQQKPGQSPKLLIYYASNRYTGVPDRFTGSGYGTDFTFSISTVQAEDLAVYFCHQDYTSPTFGGGTKLEIKR
